Where a name gives a salt, the structure may show the parent alone. The list shows a part of the results. Most values lie at the level of the controls, where differences are scatter.
System: hPSC-derived cortical neurons (WA09)
Test: nucleus area z-score vs screen plate; higher = larger nuclei (more mature)
Conditions: 5 µM; treatment: days 7-14 after plating, readout day 21

Compound	nucleus area z-score
CCN(CC)CCOCCOC(=O)C1(c2ccccc2)CCCC1 [Pentoxyverine Citrate]	-0.766
COc1ccc(Cl)cc1C(=O)NCCc1ccc(S(=O)(=O)NC(=O)NC2CCCCC2)cc1 [Glyburide]	0.636
Oc1ccc(-c2nc(-c3ccc(F)cc3)c(-c3ccncc3)[nH]2)cc1	0.0285
CN(C)C(=O)C(CCN1CCC(O)(c2ccc(Cl)cc2)CC1)(c1ccccc1)c1ccccc1 [Loperamide HCl]	-1.46
CCCCNc1cc(C(=O)O)cc(S(N)(=O)=O)c1Oc1ccccc1 [Bumetanide]	0.105
Nc1ccc(S(=O)(=O)c2ccc(N)cc2)cc1 [Dapson]	0.2
CNC(=O)[C@@H](NC(=O)[C@H](CC(C)C)[C@H](O)C(=O)NO)C(C)(C)C [Marimastat(BB-2516)]	0.442
Cc1cccc(N(C)C(=S)Oc2ccc3ccccc3c2)c1 [Tolnaftate]	-0.326
CCn1c(=O)c(-c2cc[nH]n2)cc2c(C)nc(N)nc21	-1.21
OC[C@@H](O)[C@@H](O)[C@H](O)[C@H](O)CO [D-Mannitol]	0.288
OCc1cc(C(O)CNCCCCCCOCCCCc2ccccc2)ccc1O (centres undefined) [Salmeterol Xinafoate]	-0.375
C#C[C@]1(O)CC[C@H]2[C@@H]3CCc4cc(OC)ccc4[C@H]3CC[C@@]21C [Mestranol]	-0.276
COc1cc(Nc2ncc(F)c(Nc3ccc4c(n3)N(COP(=O)(O)O)C(=O)C(C)(C)O4)n2)cc(OC)c1OC [Fostamatinib (R788)]	0.765
CCn1cc(C(=O)O)c(=O)c2ccc(C)nc21 [Nalidixic acid]	-0.521

2 entries from above, in markdown.

| Compound | nucleus area z-score |
| --- | --- |
| Nc1ccc(S(=O)(=O)c2ccc(N)cc2)cc1 [Dapson] | 0.2 |
| OC[C@@H](O)[C@@H](O)[C@H](O)[C@H](O)CO [D-Mannitol] | 0.288 |
